# Laboratory results published in patent US10414778B2, “Methods for treatment of resistant cancer” (New Mexico Tech University Research Park Corporation, priority 2016, dated 2019).
# Some entries share one result that the patent states for a list of compounds.
# Tested on: MES-SA/Dx5 cells
# Assay: MTT growth inhibition, MDR uterine sarcoma MES-SA/Dx5
# Type: cell-based, human
# Conditions: MES-SA/Dx5 versus MES-SA; antiproliferative activity
# Method: Human cancer cell lines were obtained from the American Type Culture Collection (ATCC, Manassas, Va., USA), the European Collection of Cell Culture (ECACC, Salisbury, UK), and the Deutsche Sammlung von Mikroorganismen und Zellkulturen (DSMZ, Braunschweig, Germany). Human cervical adenocarcinoma HeLa cells were cultured in DMEM supplemented with 10% fetal bovine serum (FBS). Human mammary carcinoma MCF-7 cells were cultured in RPMI supplemented with 10% FBS. The U87 cells (ATCC HTB-14) were cultured in DMEM culture medium, while the A549 cells (DSMZ ACC107) were cultured in RPMI culture medium supplemented with 10% heat-inactivated FBS. […]
# Compound 4l was also evaluated against the MDR uterine sarcoma cell line (MES-SA/Dx5 to evaluate whether the compounds of the invention were substrates for the MDR cancer efflux systems. The MES-SA/Dx5 cell line was established from the parent uterine sarcoma MES-SA, grown in the presence of increasing concentrations of doxorubicin and is known to be resistant to a number of P-gp substrates. […]
# Due to their high potencies, compounds 5l and 5g were used to determine the effects of the compounds on drug-resistant tumor cells. […] The GI50 values were calculated after 48-96 hours of treatment with the indicated compounds in replicate using the MTT growth assay.
row,Structure (SMILES),drop in potency against the MDR cell line as compared to the parent cell line [fold]
1,"CC(=O)O[C@H]1C(=O)[C@@]2(C)[C@H]([C@H](OC(=O)c3ccccc3)[C@]3(O)C[C@H](OC(=O)[C@H](O)[C@@H](NC(=O)c4ccccc4)c4ccccc4)C(C)=C1C3(C)C)[C@]1(OC(C)=O)CO[C@@H]1C[C@@H]2O [paclitaxel, reference compound]",> 1000
2,CC[C@]1(O)C[C@@H]2CN(CCc3c([nH]c4ccccc34)[C@@](C(=O)OC)(c3cc4c(cc3OC)N(C)[C@H]3[C@@](O)(C(=O)OC)[C@H](OC(C)=O)[C@]5(CC)C=CCN6CC[C@]43[C@@H]65)C2)C1 [vinblastine],> 1000
